These results are taken from article PMC11020649.

Residue numbers refer to the chain shown, from its start. These are yes or no findings as the source states them, for the method shown. Some binding calls cover weakened binding; strength is not graded here.

Experiment in all cases: two-hybrid; yeast reporter strain L40 co-transformed with pB27 (LexA DNA binding domain) Rab4b forms as bait and pACT2-VPS52 (GAL4 activation domain) as prey; medium lacking leucine and tryptophan; LacZ reporter read with X-Gal
The target of one assay is T1, Rab4bS22N (UniProt P61018).
T1 sequence: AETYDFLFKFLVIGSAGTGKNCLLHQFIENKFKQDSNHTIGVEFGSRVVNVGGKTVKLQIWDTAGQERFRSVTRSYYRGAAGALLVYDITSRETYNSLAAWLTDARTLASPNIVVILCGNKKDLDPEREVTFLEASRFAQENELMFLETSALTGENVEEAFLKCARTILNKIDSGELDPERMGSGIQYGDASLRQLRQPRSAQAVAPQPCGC

A further assay has as its target T2, Rab4bN121I (UniProt P61018).
T2 sequence: T1 sequence with N21S, N120I

The target of the next assay is T3, Rab4bQ67L (UniProt P61018).
T3 sequence: T1 sequence with N21S, Q66L

B1: full length VPS52 protein (aminoacid 1 to 723) (protein, UniProt Q8N1B4 1-723)
chain: MAAAATMAAAARELVLRAGTSDMEEEEGPLAGGPGLQEPLQLGELDITSDEFILDEVDVHIQANLEDELVKEALKTGVDLRHYSKQVELELQQIEQKSIRDYIQESENIASLHNQITACDAVLERMEQMLGAFQSDLSSISSEIRTLQEQSGAMNIRLRNRQAVRGKLGELVDGLVVPSALVTAILEAPVTEPRFLEQLQELDAKAAAVREQEARGTAACADVRGVLDRLRVKAVTKIREFILQKIYSFRKPMTNYQIPQTALLKYRFFYQFLLGNERATAKEIRDEYVETLSKIYLSYYRSYLGRLMKVQYEEVAEKDDLMGVEDTAKKGFFSKPSLRSRNTIFTLGTRGSVISPTELEAPILVPHTAQRGEQRYPFEALFRSQHYALLDNSCREYLFICEFFVVSGPAAHDLFHAVMGRTLSMTLKHLDSYLADCYDAIAVFLCIHIVLRFRNIAAKRDVPALDRYWEQVLALLWPRFELILEMNVQSVRSTDPQRLGGLDTRPHYITRRYAEFSSALVSINQTIPNERTMQLLGQLQVEVENFVLRVAAEFSSRKEQLVFLINNYDMMLGVLMERAADDSKEVESFQQLLNARTQEFIEELLSPPFGGLVAFVKEAEALIERGQAERLRGEEARVTQLIRGFGSSWKSSVESLSQDVMRSFTNFRNGTSIIQGALTQLIQLYHRFHRVLSQPQLRALPARAELINIHHLMVELKKHKPNF
For the molecule B1, the binding entry with Rab4bS22N is recorded as “no binding”; with Rab4bN121I, “no binding”; with Rab4bQ67L, “binds”.
